{"source": "patent US20190055512A1", "about": "“METHODS AND COMPOSITIONS FOR SUBSTITUTING MEMBRANE LIPIDS IN LIVING CELLS” (The Research Foundation for The State University of New York, priority 2016, published 2019)", "system": "A549 cells", "test": "Delivery of fluorescent NBD-DPPE into cells, kinetics of exchange", "format": "cell-based, human", "conditions": "non-specific association control without MαCD", "procedure": "Microscopy and Kinetics of Exchange Monitored with Fluorescent Probes and ^3H Acetate: Cyclodextrin-lipid complex containing 1.5 mM lipid (90% bSM and 10% NBD-DPPE) and 40 mM MαCD was prepared. Then, 500 μl of the cyclodextrin-lipid complex was added to 90% confluent A549 cells cultured in 6-well plates (Corning Inc., Durham, N.C.). The cells were incubated for different times at 37° C., and then the cyclodextrin-lipid complex was removed. After three washes with 2 ml PBS the cells were removed from the plate by scraping in 1 ml PBS. The cells were pelleted by centrifugation at 3,000 rpm for 3 minutes and re-suspended in 1 ml PBS. Seven μl aliquots of cells were loaded on microscope slides and covered with a, coverslip. NBD fluorescence was then imaged by confocal laser scanning microscopy using a Zeiss LSM 5 Pascal confocal laser scanning microscope system (Carl Zeiss AG, German).\nIn other experiments, fluorescence intensity was measured for the each well of cells whereby cells were placed in fluorescence cuvettes using Fluorolog (Jobin Yvon Horiba, Edison, N.J.) with an excitation wavelength of 465 nm and emission wavelength of 534 nm. […]\nIn an analogous experiment, A549 cells were ^3H labeled and subjected to lipid exchange with cyclodextrin-lipid complex. […] Radioactivity in the PS+PI and SM bands was subsequently measured by scintillation counting.", "note": "At least one compound was matched to its structure with a doubt left.", "data": [{"smiles": "CCCCCCCCCCCCCCCC(=O)OC[C@H](COP(=O)(O)OCCNc1ccc([N+](=O)[O-])c2nonc12)OC(=O)CCCCCCCCCCCCCCC", "note": "[NBD-DPPE, 1,2-dipalmitoyl-sn-glycero-3-phosphoethanolamine-N-(7-nitro-2-1,3-benzoxadiazol-4-yl)]", "values": [{"measurement": "fluorescent lipid associated with cells in the absence of MαCD relative to presence of αCD", "value": "about 1/100th"}]}]}
